Library screen at single concentrations

The chains behind the UniProt entries cited, without tags or fusion partners.
UniProt P9WNZ1, whole entry: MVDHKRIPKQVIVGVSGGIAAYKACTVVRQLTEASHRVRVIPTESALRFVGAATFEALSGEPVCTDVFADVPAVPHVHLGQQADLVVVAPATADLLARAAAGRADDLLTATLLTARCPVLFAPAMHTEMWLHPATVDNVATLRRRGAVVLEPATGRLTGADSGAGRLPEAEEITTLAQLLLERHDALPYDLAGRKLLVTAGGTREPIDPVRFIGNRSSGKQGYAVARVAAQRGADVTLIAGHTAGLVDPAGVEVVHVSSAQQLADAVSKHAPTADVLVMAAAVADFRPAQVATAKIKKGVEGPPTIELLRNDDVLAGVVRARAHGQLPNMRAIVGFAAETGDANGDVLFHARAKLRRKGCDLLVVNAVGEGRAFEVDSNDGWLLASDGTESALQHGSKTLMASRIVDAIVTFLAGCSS

CoaBC: 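Coenzyme A biosynthesis protein CoaBC, Mycobacterium tuberculosis (UniProt P9WNZ1). Enzyme assay of CoaBC with a phosphate dye (Biomol Green) read at 650 nm. Concentration: 30 µM. Higher reads as stronger inhibition, judged from the few compounds that gave an IC50. Most strong results did not repeat in a second test. About 67,000 compounds were tested under these conditions; 0.06% (about 40) showed 50% or more at least once.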
Leishmania in macrophages: 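Cell assay of Leishmania donovani living inside macrophages; the read-out is not stated. Tested at 30 µM. Higher reads as stronger inhibition (inferred: compounds with an IC50 in retests scored well above the rest). Of about 69,000 compounds tested this way, about 1,000 (1.5%) reached 50% or more in at least one test.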

The filed quantity is “Percent Effect” (%).
How 0% and 100% were set is not recorded. Most values in the screen are low, and negative values occur.
The compounds are a random part of those screened.
Two or more numbers in one place are separate tests of the same structure; such repeats can differ widely.
A dash means the value is not listed here; it may have been measured.

| SMILES | CoaBC | Leishmania in macrophages |
|---|---|---|
| `Cc1cnc(N2CCC3(CC2)COCCN(C(C)C)C3)nc1.O=C(O)C(F)(F)F` | - | 47.98% |
| `Cc1ccc(CN2CCc3nnc(CN4CCCC4=O)n3CC2)s1.O=C(O)C(F)(F)F` | - | 2.262% |
| `CCN1CCO[C@@H]2CN(S(=O)(=O)c3cccs3)CC[C@@H]2C1` | 3.659% | - |
| `COc1ccc(C(C)N(C)Cc2c(C(C)C)[nH]c3ncccc23)cc1` (stereo not drawn) | 7.991% | -22.28% |
| `CC(C)c1ccc(C(CN)N2CCc3sccc3C2)cc1` (stereo not drawn) | 4.084% | 82.67% |
| `Cc1n[nH]c(C)c1C1COCCN1C(=O)Cc1cccc(F)c1` (stereo not drawn) | 1.066% | -2.9% |
| `COCCCN(CCOC)C(=O)Nc1ccc(Br)cc1` | 0.1203% | 0.5124% |
| `COc1ccc(CN(Cc2cn(C)nc2C)CC2CCCO2)c(OC)c1` (stereo not drawn) | 3.148% | -0.4645% & -11.69% |
| `CC(=O)N1N=C(c2ccco2)OC1C(=O)NCCc1ccc(O)cc1` (stereo not drawn) | -0.9709% | 26.2% |
| `COc1ccccc1C(C)NC(=O)N1CCC(n2cncn2)CC1` (stereo not drawn) | 6.888% | -7.882% |
| `Cc1c(Cl)cccc1NC(=O)CN(Cc1cccnc1)C(C)C` | 0.8526% | -36.27% |
| `Cc1nc(-c2ccc(CO)cc2)cc(C2CCNCC2)n1.Cl` | - | -24.64% |
| `CC(C)=CCC1(CO)CCCN(Cc2nccs2)C1` (stereo not drawn) | - | 10.24% |
| `Cc1cc(C)n(C2CN(CC(=O)NCc3ccccn3)C2)n1` | 6.997% | 3.113% |
| `CN(CCc1cn[nH]c1)C(=O)C1CC(=O)N(Cc2cccnc2)C1` (stereo not drawn) | 4.412% | -19.38% |
| `Cc1[nH]nc(CCC(=O)NCC2CCN(C3CCCCC3)C2)c1C` (stereo not drawn) | 4.369% | -4.311% |
| `CCN(C(=O)CN1CCCC1Cc1ccccc1)c1ccccc1` (stereo not drawn) | 5.952% | -34.13% |
| `O=C(O)C(F)(F)F.[H][C@]12CN(C(=O)C3CCC3)C[C@@]1([H])C(=O)N(Cc1ccncc1)C2` | - | 3.718% |
| `Cn1cc(-c2cnc(-c3ccnn3C)nc2)cc1C(=O)NC1CC1` | 1.463% | -17.11% |
| `Cc1cnn(CC2CN(Cc3csc(C(C)C)n3)CCO2)c1` (stereo not drawn) | 2.089% | -18.31% |
| `O=S(=O)(CCNCc1cccc2c1OCCO2)N1CCOCC1` | -0.2132% | -8.206% |
| `COc1ccc(SC(C)C(=O)N2CCC(C(N)=O)CC2)cc1` (stereo not drawn) | 12.63% | 15.84% |
| `O=C(NCCCNC(=O)C1CCC1)NCCn1cccc1` | 0.4963% | 15.88% |
| `COCCNC(=O)c1nc2c(s1)CCCN2Cc1ccccc1` | -20% | 12.02% |
| `Cn1nc(C(=O)N2CCCC2)c2c1CN(CC1CCOCC1)C2` | - | -0.9877% |
| `C[C@@H]1CN(S(C)(=O)=O)C[C@]12CCN(Cc1cccnc1)C2=O.O=C(O)C(F)(F)F` | - | -0.3362% |
| `CC1CCC(NC(=O)Nc2ccc(CC(=O)N(C)C)cc2)CC1` (stereo not drawn) | 11.16% | 1.901% |
| `CC(C)c1nc(C2CCCN(C(=O)CCCn3cccn3)C2)no1` (stereo not drawn) | -3.106% | 25.61% |
| `[H][C@]12CC[C@]([H])(C1)N(C(=O)c1cccnc1-c1cc(OC)ccc1F)C2` | - | 21.01% |
| `[H][C@@]12OCCN(C(=O)c3occc3C)[C@@]1([H])CC[C@H]2OCC1CCOCC1` | - | 11.86% |
| `Cc1nc(-c2ccccc2)sc1CSCCS(C)(=O)=O` | -4.032% | -25.17% |
| `O=S1(=O)NC(c2ccnc(N3CCOCC3)n2)=Nc2ccccc21` | -1.456% | -7.463% |
| `Cc1cc(C)n(-c2ccc(C(=O)NCC(CO)Cc3cccs3)cc2)n1` (stereo not drawn) | 7.901% | 8.422% |
| `O=C(NCCNc1cnccn1)N1CC=C(c2ccccc2)CC1` | 0.3968% | 33.12% |
| `Cc1ccc2[nH]c(CN3CC[C@@H](N4CCN(C)CC4)[C@H](O)C3)c(C)c2c1` | -0.241% | 23.41% |
| `COc1ncccc1CN1C[C@@H]2COC[C@]2(COCC2CC2)C1` | 5.787% | - |
| `CCOc1c(CNCCCn2ccnc2)cc(Cl)cc1OC.Cl.Cl` | - | 35.73% |
| `Cc1ccc(NC2CCN(C(=O)CCOCC(F)(F)F)CC2)nn1` | 8.82% | 13.54% |
| `CN(C)C(=O)c1ccc(CNc2c(Cl)cccc2C#N)cc1` | 3.018% | 18.71% |
| `Cc1nnc(CN2CCC3(CCC(=O)N(C4CC4)C3)CC2)o1` | 0.8537% | 8.73% |

Repeated from the top, 3 entries:

With Cc1cnc(N2CCC3(CC2)COCCN(C(C)C)C3)nc1.O=C(O)C(F)(F)F the screen gave Leishmania in macrophages: 47.98%.
With Cc1ccc(CN2CCc3nnc(CN4CCCC4=O)n3CC2)s1.O=C(O)C(F)(F)F the screen gave Leishmania in macrophages: 2.262%.
With CCN1CCO[C@@H]2CN(S(=O)(=O)c3cccs3)CC[C@@H]2C1 the screen gave CoaBC: 3.659%.

Data taken from ChEMBL document CHEMBL3988442, “University of Dundee, Small-Polar-MMV Screening Library” (2021).